PubChem BioAssay AID652272 – Drosophila RNAi Screening Center – 2013
Purpose: 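Finding fly genes that regulate Hedgehog signal transduction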 (primary screen). Cells: Drosophila clone 8 (Cl8) cells. Knock-down reagent: long dsRNA against Drosophila genes. Measurement: 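Firefly light from a Hedgehog-responsive ptc promoter reporter and Renilla reference light, both read on a plate reader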. Reading the numbers: firefly Hh reporter signal: higher = more ptc reporter light; Renilla reference signal: higher = more Renilla control light. Call rule: 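Hit when the z-score averaged over two replicates is under -2 or over +3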. Meaning of the calls: active = hit: reporter lowered or raised; inactive = not a hit.
In all, the deposit lists about 21,000 reagents; below is an unselected part of those with a known target gene and a result. In the full data, 503 (2.4%) got an active call. 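Raw plate light values, not normalised; calls rest on replicate z-scores that were not deposited; hits include reporter decreases as well as increases.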 Names joined by + are all predicted targets of the reagent. Not stated in the record: the amount of reagent, the time to read-out.

{"target gene": "CG13856", "dsRNA": "DRSC14706", "firefly Hh reporter signal, replicate 1": 1.02e6, "firefly Hh reporter signal, replicate 2": 1.97e5, "Renilla reference signal, replicate 1": 51352, "Renilla reference signal, replicate 2": 4834, "Call": "inactive"}
{"target gene": "Arr2 (Arrestin 2)", "dsRNA": "DRSC09670", "firefly Hh reporter signal, replicate 1": 50757, "firefly Hh reporter signal, replicate 2": 54912, "Renilla reference signal, replicate 1": 2861, "Renilla reference signal, replicate 2": 3111, "Call": "inactive"}
{"target gene": "CG3598", "dsRNA": "DRSC18471", "firefly Hh reporter signal, replicate 1": 1.06e5, "firefly Hh reporter signal, replicate 2": 3.12e5, "Renilla reference signal, replicate 1": 4330, "Renilla reference signal, replicate 2": 11425, "Call": "inactive"}
{"target gene": "CG42249", "dsRNA": "DRSC19383", "firefly Hh reporter signal, replicate 1": 62636, "firefly Hh reporter signal, replicate 2": 1.62e5, "Renilla reference signal, replicate 1": 1741, "Renilla reference signal, replicate 2": 7012, "Call": "inactive"}
{"target gene": "CG42249", "dsRNA": "DRSC19826", "firefly Hh reporter signal, replicate 1": 62592, "firefly Hh reporter signal, replicate 2": 2.24e5, "Renilla reference signal, replicate 1": 1867, "Renilla reference signal, replicate 2": 9013, "Call": "inactive"}
{"target gene": "SC35 (SR family splicing factor SC35)", "dsRNA": "DRSC02502", "firefly Hh reporter signal, replicate 1": 66010, "firefly Hh reporter signal, replicate 2": 24337, "Renilla reference signal, replicate 1": 2332, "Renilla reference signal, replicate 2": 3093, "Call": "active"}
{"target gene": "SC35 (SR family splicing factor SC35)", "dsRNA": "DRSC03425", "firefly Hh reporter signal, replicate 1": 1.66e5, "firefly Hh reporter signal, replicate 2": 69898, "Renilla reference signal, replicate 1": 4169, "Renilla reference signal, replicate 2": 6081, "Call": "inactive"}
{"target gene": "CG17159 + CG17162", "dsRNA": "DRSC20899", "firefly Hh reporter signal, replicate 1": 50042, "firefly Hh reporter signal, replicate 2": 1.60e5, "Renilla reference signal, replicate 1": 1056, "Renilla reference signal, replicate 2": 6212, "Call": "inactive"}
{"target gene": "CG17159 + CG17162", "dsRNA": "DRSC20900", "firefly Hh reporter signal, replicate 1": 74817, "firefly Hh reporter signal, replicate 2": 2.26e5, "Renilla reference signal, replicate 1": 1592, "Renilla reference signal, replicate 2": 9203, "Call": "inactive"}
{"target gene": "GstE3 (Glutathione S transferase E3)", "dsRNA": "DRSC06673", "firefly Hh reporter signal, replicate 1": 1.01e5, "firefly Hh reporter signal, replicate 2": 52443, "Renilla reference signal, replicate 1": 2979, "Renilla reference signal, replicate 2": 4227, "Call": "inactive"}
{"target gene": "Nin (Ninein)", "dsRNA": "DRSC02007", "firefly Hh reporter signal, replicate 1": 63877, "firefly Hh reporter signal, replicate 2": 47633, "Renilla reference signal, replicate 1": 2806, "Renilla reference signal, replicate 2": 2189, "Call": "inactive"}
{"target gene": "mlt (retired record)", "dsRNA": "DRSC06120", "firefly Hh reporter signal, replicate 1": 75052, "firefly Hh reporter signal, replicate 2": 34801, "Renilla reference signal, replicate 1": 3808, "Renilla reference signal, replicate 2": 1368, "Call": "inactive"}

Reformatted: results already given.
| target gene | dsRNA | firefly Hh reporter signal, replicate 1 | firefly Hh reporter signal, replicate 2 | Renilla reference signal, replicate 1 | Renilla reference signal, replicate 2 | Call |
| --- | --- | --- | --- | --- | --- | --- |
| GstE3 (Glutathione S transferase E3) | DRSC06673 | 1.01e5 | 52443 | 2979 | 4227 | inactive |
| Nin (Ninein) | DRSC02007 | 63877 | 47633 | 2806 | 2189 | inactive |
